# Laboratory results as given in US20150126364A1, “1,3-DIARYL-SUBSTITUTED HETEROCYCLIC PESTICIDES” (E I DU PONT DE NEMOURS AND COMPANY, priority 2012, published 2015).
# Some of these results come from one statement about several compounds together. At least one compound was matched to its structure with a doubt left.
# Test system: potato leafhopper (Empoasca fabae)
# Experiment: Test D: control of potato leafhopper on Soleil bean plant, contact and/or systemic
# Type: in vivo
# Conditions: sprayed at 50 ppm; 6 days; very good to excellent control
# Procedure: Test compounds were formulated using a solution containing 10% acetone, 90% water and 300 ppm X-77® Spreader Lo-Foam Formula non-ionic surfactant containing alkylarylpolyoxyethylene, free fatty acids, glycols and isopropanol (Loveland Industries, Inc. Greeley, Colo., USA). The formulated compounds were applied in 1 mL of liquid through a SUJ2 atomizer nozzle with ⅛ JJ custom body (Spraying Systems Co., Wheaton, Ill., USA) positioned 1.27 cm (0.5 inches) above the top of each test unit. Test compounds were sprayed at 250 ppm and/or 50 ppm, and replicated three times. After spraying of the formulated test compound, each test unit was allowed to dry for 1 h and then a black, screened cap was placed on top. The test units were held for 6 days in a growth chamber at 25° C. and 70% relative humidity. Plant feeding damage was then visually assessed based on foliage consumed.
# For evaluating control of potato leafhopper (Empoasca fabae) through contact and/or systemic means, the test unit consisted of a small open container with a 5-6-day-old Soleil bean plant (primary leaves emerged) inside. White sand was added to the top of the soil and one of the primary leaves was excised prior to application.
# Test compounds were formulated and sprayed at 250 ppm and/or 50 ppm, and the tests were replicated three times as described for Test A. After spraying, the test units were allowed to dry for 1 h before they were post-infested with 5 potato leafhoppers (18-21-day-old adults). A black, screened cap was placed on the top of each test unit, and the test units were held for 6 days in a growth chamber at 24° C. and 70% relative humidity. Each test unit was then visually assessed for insect mortality.
row,SMILES,control efficacy: mortality
1,CC(=O)NC1CCN(Cc2nn(-c3ccc(F)c(Cl)c3)nc2-c2ccc(F)cc2F)CC1 [Compound 112],≥ 80%
2,COC(=O)C1CCN(Cc2nn(-c3cccc(C(F)(F)F)c3)nc2-c2c(F)cc(F)cc2F)CC1 [Compound 114],≥ 80%
3,CC(=O)N[C@@H]1CCN(Cc2nn(-c3ccc(F)c(Cl)c3)nc2-c2c(F)cc(F)cc2F)C1 [Compound 138],≥ 80%

# Same assay, conditions: sprayed at 250 ppm; 6 days; very good to excellent control
row,SMILES,control efficacy: mortality
1,COC(=O)C1CCN(Cc2nn(-c3ccc(C(F)(F)F)cc3)nc2-c2ccc(F)cc2F)CC1 [Compound 105],≥ 80%
2,CC(=O)NC1CCN(Cc2nn(-c3ccc(F)c(Cl)c3)nc2-c2ccc(F)cc2F)CC1 [Compound 112],≥ 80%
3,COC(=O)C1CCN(Cc2nn(-c3cccc(C(F)(F)F)c3)nc2-c2c(F)cc(F)cc2F)CC1 [Compound 114],≥ 80%
4,CC(=O)N[C@@H]1CCN(Cc2nn(-c3ccc(F)c(Cl)c3)nc2-c2c(F)cc(F)cc2F)C1 [Compound 138],≥ 80%

# Test system: diamondback moth (Plutella xylostella)
# Experiment: Test A: control of diamondback moth on radish plant, foliar spray
# Type: in vivo
# Conditions: sprayed at 50 ppm; 6 days; very good to excellent control
row,SMILES,control efficacy: feeding damage (40% or less feeding damage and/or 100% mortality)
1,COC(=O)C1CCN(Cc2nn(-c3ccc(C(F)(F)F)cc3)nc2-c2ccc(F)cc2F)CC1 [Compound 105],≤ 40%
2,CC(=O)NC1CCN(Cc2nn(-c3ccc(F)c(Cl)c3)nc2-c2ccc(F)cc2F)CC1 [Compound 112],≤ 40%
3,COC(=O)C1CCN(Cc2nn(-c3cccc(C(F)(F)F)c3)nc2-c2c(F)cc(F)cc2F)CC1 [Compound 114],≤ 40%
4,CC(=O)N[C@@H]1CCN(Cc2nn(-c3ccc(F)c(Cl)c3)nc2-c2c(F)cc(F)cc2F)C1 [Compound 138],≤ 40%

# Test system: corn planthopper (Peregrinus maidis)
# Experiment: Test E: control of corn planthopper on maize plant, contact and/or systemic
# Type: in vivo
# Conditions: sprayed at 250 ppm; 6 days; very good to excellent control
row,SMILES,control efficacy: mortality
1,CC(=O)NC1CCN(Cc2[nH]c(-c3ccccc3F)nc2-c2ccc(F)cc2F)CC1 [Compound 92],≥ 80%
2,COC(=O)C1CCN(Cc2nn(-c3ccc(C(F)(F)F)cc3)nc2-c2ccc(F)cc2F)CC1 [Compound 105],≥ 80%
3,CC(=O)NC1CCN(Cc2nn(-c3ccc(F)c(Cl)c3)nc2-c2ccc(F)cc2F)CC1 [Compound 112],≥ 80%

# Test system: fall armyworm (Spodoptera frugiperda)
# Experiment: Test B: control of fall armyworm on maize plant, foliar spray
# Type: in vivo
# Conditions: sprayed at 50 ppm; very good to excellent control
row,SMILES,control efficacy: feeding damage (40% or less feeding damage and/or 100% mortality)
1,CC(=O)NC1CCN(Cc2nn(-c3ccc(F)c(Cl)c3)nc2-c2ccc(F)cc2F)CC1 [Compound 112],≤ 40%
2,CC(=O)N[C@@H]1CCN(Cc2nn(-c3ccc(F)c(Cl)c3)nc2-c2c(F)cc(F)cc2F)C1 [Compound 138],≤ 40%

# Test system: green peach aphid (Myzus persicae)
# Experiment: Test C: control of green peach aphid on radish plant, contact and/or systemic
# Type: in vivo
# Conditions: sprayed at 250 ppm; 6 days
row,SMILES,mortality
1,Cn1c(-c2cccc(C(F)(F)F)c2)nc(-c2ccccc2F)c1CN1CCC(C#N)CC1 [Compound 40],at least 80%
2,COC(=O)C1CCN(Cc2nn(-c3cccc(C(F)(F)F)c3)nc2-c2c(F)cc(F)cc2F)CC1 [Compound 114],at least 80%
